# According to the supplement of paper PMC8728848:
# Some of the results follow.
# Legend:
# Assay in all cases: glycan array binding signal (z-score within array); higher = stronger binding
# Conditions in all cases: glycan notation: IUPAC condensed, linker removed
# [1] = target: Man(a1-2)Man(a1-3)[Man(a1-2)Man(a1-6)]Man(a1-6)[Man(a1-2)Man(a1-2)Man(a1-3)]Man
# Outline: (§1)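 Columns mapping to the same glycan were averaged after glycan names were converted to IUPAC-condensed notation. The data come from 3228 arrays in the Consortium for Functional Glycomics database, limited to those with an available protein sequence. Binding is reported as a within-array Z-score averaged across arrays of one protein sequence and across linkers.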
# [2] = target: Man(a1-2)Man(a1-3)[Man(a1-2)Man(a1-6)]Man(a1-6)[Man(a1-2)Man(a1-2)Man(a1-3)]Man(b1-4)GlcNAc(b1-4)GlcNAc
# Outline: as §1
# [3] = target: Man(a1-2)Man(a1-3)[Man(a1-6)]Man(a1-6)[Man(a1-2)Man(a1-3)]Man(b1-4)GlcNAc(b1-4)GlcNAc
# Outline: as §1
# [4] = target: Man(a1-2)Man(a1-6)[Man(a1-3)]Man(a1-6)[Man(a1-2)Man(a1-2)Man(a1-3)]Man
# Outline: as §1
# [5] = target: Man(a1-2)Man(a1-6)[Man(a1-3)]Man(a1-6)[Man(a1-2)Man(a1-2)Man(a1-3)]Man(b1-4)GlcNAc(b1-4)GlcNAc
# Outline: as §1
# Man(a1-3)[Man(a1-6)]Man = target: Man(a1-3)[Man(a1-6)]Man
# Outline: as §1
# [6] = target: Man(a1-3)[Man(a1-6)]Man(a1-6)[Man(a1-2)Man(a1-3)]Man(b1-4)GlcNAc(b1-4)GlcNAc
# Outline: as §1
# [7] = target: Man(a1-3)[Man(a1-6)]Man(a1-6)[Man(a1-3)]Man
# Outline: as §1
# [8] = target: Man(a1-3)[Man(a1-6)]Man(a1-6)[Man(a1-3)]Man(b1-4)GlcNAc(b1-4)GlcNAc
# Outline: as §1
# [9] = target: Man(a1-3)[Man(a1-6)]Man(b1-4)GlcNAc(b1-4)GlcNAc
# Outline: as §1
# [10] = target: Man(a1-3)[Man(a1-6)]Man(b1-4)GlcNAc(b1-4)[Fuc(a1-6)]GlcNAc
# Outline: as §1
# Man(a1-6)Man = target: Man(a1-6)Man
# Outline: as §1
# Man(b1-4)GlcNAc = target: Man(b1-4)GlcNAc
# Outline: as §1
# MurNAc(b1-4)GlcNAc = target: MurNAc(b1-4)GlcNAc
# Outline: as §1
# Neu5Ac(a2-3)Gal = target: Neu5Ac(a2-3)Gal
# Outline: as §1
# [11] = target: Neu5Ac(a2-3)Gal(b1-3)GalNAc
# Outline: as §1
# [12] = target: Neu5Ac(a2-3)Gal(b1-3)GalNAc(b1-3)Gal(a1-4)Gal(b1-4)Glc
# Outline: as §1
# [13] = target: Neu5Ac(a2-3)Gal(b1-3)GalNAc(b1-4)[Neu5Ac(a2-3)]Gal(b1-4)Glc
# Outline: as §1
# [14] = target: Neu5Ac(a2-3)Gal(b1-3)GalNAc(b1-4)[Neu5Ac(a2-8)Neu5Ac(a2-3)]Gal(b1-4)Glc
# Outline: as §1
# [15] = target: Neu5Ac(a2-3)Gal(b1-3)GalNAc6S
# Outline: as §1
# [16] = target: Neu5Ac(a2-3)Gal(b1-3)GlcNAc
# Outline: as §1
# [17] = target: Neu5Ac(a2-3)Gal(b1-3)GlcNAc(b1-2)Man
# Outline: as §1
# [18] = target: Neu5Ac(a2-3)Gal(b1-3)GlcNAc(b1-2)Man(a1-3)[GlcNAc(b1-4)][Neu5Ac(a2-3)Gal(b1-3)GlcNAc(b1-2)Man(a1-6)]Man(b1-4)GlcNAc(b1-4)GlcNAc
# Outline: as §1
# [19] = target: Neu5Ac(a2-3)Gal(b1-3)GlcNAc(b1-2)Man(a1-3)[Neu5Ac(a2-3)Gal(b1-3)GlcNAc(b1-2)Man(a1-6)]Man(b1-4)GlcNAc(b1-4)GlcNAc
# Outline: as §1
# [20] = target: Neu5Ac(a2-3)Gal(b1-3)GlcNAc(b1-3)Gal(b1-3)GlcNAc
# Outline: as §1
# [21] = target: Neu5Ac(a2-3)Gal(b1-3)GlcNAc(b1-3)Gal(b1-4)GlcNAc
# Outline: as §1
# [22] = target: Neu5Ac(a2-3)Gal(b1-3)GlcNAc(b1-3)GalNAc
# Outline: as §1
# [23] = target: Neu5Ac(a2-3)Gal(b1-3)GlcNAc(b1-4)Gal(b1-4)Glc
# Outline: as §1
# [24] = target: Neu5Ac(a2-3)Gal(b1-3)GlcNAc(b1-6)GalNAc
# Outline: as §1
# [25] = target: Neu5Ac(a2-3)Gal(b1-3)GlcNAc6S
# Outline: as §1
binder,measurement,setting,value
GS7807I-bvu-563-22-563 (Bacteroides vulgatus) (protein) IFSSCTDDFEKLNTSNIQVDPADLPFAAQCTEPMTYCYPPQQNMFQFWTNLTIDLYGGYFMTPNGNFTNGDMGENRGHSGGMYENYYLHIFNNTRRIIAQCDASGERGLSGVMRIVQAYGTLMTTDAYGPIPYSSILSGENEVYFEFDSQKDLYKAMLEDLSTAITDISAMGADEIAKLKSFDCWCNGDKDLWVKIANTMKLRMALRLSKRETEAGNAGMNLKAIATEAAQNTLATVNKDILIDKSLENEMWLMFNWGDCGFNANLVTIMSGTKDPRQPLYMTLNTGDIKNEAGTTTVAANSQYLGIRFASGLPAKPNSWGNFSGWIQGNNGSSYSMPLPIMKAAEAYFLLAEAKLRWDIGSESVKNLYENGIRVSMTNELAYRGAYAGIKEYPEGAVDAYINGTSTQIDYTDPIKAELSTPAVNKLSVKWDESASNEEKLERIITQKWLALFPLSTEGWAEQRRTGYPRFFPAFVNESNGAVNTEEGVRRVIYSSQAYDANAKGVEGGIKLLDEENSSKFGISGDKGGTHLWWDNADKGNF,glycan array binding signal (z-score),[1],0.613
same,glycan array binding signal (z-score),[2],0.646
same,glycan array binding signal (z-score),[3],-1.19
same,glycan array binding signal (z-score),[4],-0.237
same,glycan array binding signal (z-score),[5],-0.188
same,glycan array binding signal (z-score),Man(a1-3)[Man(a1-6)]Man,-0.159
same,glycan array binding signal (z-score),[6],-0.164
same,glycan array binding signal (z-score),[7],0.672
same,glycan array binding signal (z-score),[8],0.24
same,glycan array binding signal (z-score),[9],-0.233
same,glycan array binding signal (z-score),[10],0.226
same,glycan array binding signal (z-score),Man(a1-6)Man,-0.623
same,glycan array binding signal (z-score),Man(b1-4)GlcNAc,-1.7
same,glycan array binding signal (z-score),MurNAc(b1-4)GlcNAc,-0.797
same,glycan array binding signal (z-score),Neu5Ac(a2-3)Gal,0.778
same,glycan array binding signal (z-score),[11],0.162
same,glycan array binding signal (z-score),[12],-0.082
same,glycan array binding signal (z-score),[13],-1.07
same,glycan array binding signal (z-score),[14],-0.767
same,glycan array binding signal (z-score),[15],-0.22
same,glycan array binding signal (z-score),[16],0.76
same,glycan array binding signal (z-score),[17],-0.412
same,glycan array binding signal (z-score),[18],0.131
same,glycan array binding signal (z-score),[19],0.568
same,glycan array binding signal (z-score),[20],-0.718
same,glycan array binding signal (z-score),[21],-0.15
same,glycan array binding signal (z-score),[22],-1.07
same,glycan array binding signal (z-score),[23],-0.293
same,glycan array binding signal (z-score),[24],-1.17
same,glycan array binding signal (z-score),[25],0.987
